In PubChem BioAssay AID2685 (National Center for Advancing Translational Sciences (NCATS), 2010):
About 2,100 (0.66%) of roughly 320,000 compounds were called active. Inconclusive means that the source gave no clear call. Such entries were picked first, then a sample of the others. The call rests on the fitted dose curve; in most records, active means well fitted inhibition curve with a large enough effect in the signal ratio, with a control signal flat (not every such curve was filed as active); inconclusive means small, poorly fitted or top-dose-only effect, or effect the other way, or a change in a side signal; inactive means flat fitted curve, though single readings scatter; the % refers to the signal ratio. Potencies of inconclusive entries are doubtful fits and often do not repeat.

Assay: qHTS Assay for Lipid Storage Modulators in Drosophila S3 Cells
Settings: BODIPY lipid droplet fluorescence, 18-24 h, cells fed with added oleic acid; lipid storage change, negative = inhibition: at 46.1 µM (top of the series) unless noted
Text: NIH Molecular Libraries Probe Production Centers Network [MLPCN] NIH Chemical Genomics Center [NCGC] MLPCN Grant: 1 R03 MH085686-01 Assay Submitter (PI): Beller, Mathias; Max-Planck-Institut fur Biophysikalische Chemie NCGC Assay Overview: Storing lipids as a reservoir for energy or the anabolism of elementary metabolites is a common feature of probably all cells and is conserved from bacteria to humans. The universal cellular lipid storage organelle is the so-called lipid storage droplet (LD). Although ubiquitous, LDs share a simple structure composed of a hydrophobic core that harbors the storage lipids, which is shielded by a droplet-specific phospholipid monolayer to which proteins are attached. The current model of LD biogenesis involves an incorporation of the lipid core into the membrane leaflets of the endoplasmic reticulum (ER) followed by a subsequent budding-like maturation of a LD, which ultimately pinches off. Once released, LD volume can increase by localized lipogenesis or fusion of existing droplet. Storage lipids are re-mobilized enzymatically by lipase activity. Lipase regulation in the adipocyte is heavily studied and involves multiple components including catecholamine signaling, the LD-associated proteins Perilipin and comparative gene identification (CGI-58) and at least two lipases named hormone sensitive lipase (HSL) and adipocyte triglyceride lipase (ATGL). LD regulation outside of the adipocyte is poorly understood and only few components are known. However, there is an urgent need to learn more about ectopic fat depots as mislocalized storage of lipids, for example in the liver or muscle, is an eminent health problem associated with insulin resistance or the metabolic syndrome. We developed a laser-scanning cytometer assay to enable 1,536-well screening and combined the results of the small molecules screen with an RNAi database based on lipid storage.
Triacsin C (Sigma-Aldrich T-4540), an inhibitor of long-chain fatty acyl CoA synthetase that blocks synthesis of triglycerides, was used as a positive control for lipid under-storage. A total of 23 nL of compound solution of different concentrations were transferred to the assay plates using a Kalypsys pin tool equipped with a 1,536-pin array containing 10-nL slotted pins (FP1S10, 0.457-mm diameter, 50.8 mm long; V&P Scientific). One microliter of oleic acid (400 uM) was added, and the plate was lidded with stainless steel rubber gasket lined lids containing pinholes. […] Fluorescence was detected by excitation of the fluorophores with a 488-nm laser on an Acumen Explorer (TTP Lab Tech). The total intensity in channel 2 (500-530 nm) reflected lipid droplet accumulation. Cells were detected using channel 3 (575-640 nm) with 5-um width and 100-um depth filters. The ratio of the number of objects in PMT channel 2 over the number of objects in PMT channel 3 was also calculated. Percent activity was computed relative to an internal control (100% inhibited lipid droplet deposition due to the presence of 20 uM Triacsin C), which was added to 32 wells/plate.
On the % scale 0 is the no-effect control and ±100 the full control effect; potency means the concentration at half of the fitted maximal effect.

SMILES	lipid storage change, negative = inhibition	Potency
Cc1nc(-c2nnc(SCC(=O)Nc3cc(C(F)(F)F)cc(C(F)(F)F)c3)n2C)cs1	inconclusive: -12.5%	–
CCn1cnnc1SCC(=O)c1c(N)n(C2CC2)c(=O)[nH]c1=O	inconclusive: 16.1%	–
O=C(N/N=C/C(Br)=C/c1ccccc1)c1n[nH]c2c1CCC2	inconclusive: 10.3%	–
COc1cc(OC)c(NC(=O)CC(C)=O)cc1Cl	–	inconclusive: 7.31 µM [falling, single point]
CC[C@H](C)[C@H](NS(=O)(=O)c1ccc(C)cc1)C(=O)N1CCC(C(=O)N[C@H](C(=O)O)C(C)C)CC1	–	inconclusive: 29.1 µM [falling, single point]
O=C(NNC(=O)C1C2C=CC(C2)C1C(=O)O)c1ccccc1O (configuration not stated)	–	inconclusive: 29.1 µM [activator, partial curve, poor fit]
O=C(CSc1nnc(-c2ccncc2)o1)Nc1cc(F)ccc1F	–	inconclusive: 6.51 µM [activator, single point]
COc1ccccc1-n1c(C)nnc1SCC(=O)Nc1cccc(C(C)=O)c1	–	inconclusive: 0.731 µM [rising, full curve]
COc1cc(SC)ccc1C(=O)Nc1cccc(S(=O)(=O)NC2=NCCCCC2)c1	inconclusive	–
NC(=O)CCc1nc2cc(C(F)(F)F)ccc2n(Cc2ccccc2)c1=O	–	inconclusive: 0.206 µM [activator, single point]
Cc1csc(SCC(=O)Nc2nccs2)n1	inconclusive: 18.4%	–
Cc1ccccc1/C=C\c1nc2ccccc2c(=O)n1Cc1ccccc1	inconclusive: 19.6%	–
CC(=O)Oc1ccc(C(c2ccc(OC(C)=O)cc2)c2ccccn2)cc1	–	inconclusive: 23.1 µM [activator, partial curve]
CNC(=O)c1ccsc1NC(=O)c1sc2ccccc2c1Cl	inconclusive: -32.3%	–
Cc1c(CN2CCN(C)C(CCO)C2)[nH]c2c(Cl)cccc12 (configuration not stated)	inconclusive: 18.3%	–
O=C(NCCOc1cccnc1)c1ccc(OC2CCN(Cc3ccccn3)CC2)cc1	–	inconclusive: 1.46 µM [falling, full curve, poor fit]
CCOC(=O)c1c(NC(=O)CN2CCC(C)CC2)sc(C)c1C	inconclusive: 96.2%	–
O=C(c1cccc(OC2CCN(Cc3cc(F)cc(F)c3)CC2)c1)N1CCCC1	inconclusive: 7.94%	–
N/C(=N\OC(=O)Cc1ccc(-c2ccccc2)cc1)c1ccncc1	inconclusive: -7.74%	–
C/C(Cc1ccccc1)=N\NC(=O)CNC(=O)c1ccccc1Br	inconclusive: 20.7%	–
O=C(Cc1cccs1)N1CCN(c2ccccn2)CC1	inconclusive: -22.7%	–
O=[N+]([O-])c1cc(S(=O)(=O)N2CCCCC2)ccc1NCCCN1CCOCC1	inconclusive: -10.3%	–
CC(=O)c1ccc(OCCCC(=O)NCC(c2ccco2)N(C)C)cc1 (configuration not stated)	inconclusive: -34.8%	–
CCc1ccc(C2C(C#N)=C(N)N(N(C)C)C3=C2C(=O)CCC3)s1 (configuration not stated)	–	inconclusive: 20.6 µM [activator, partial curve]
Cc1cccc(C2c3[nH]c4ccccc4c3CCN2C(=O)c2cn(C)c3ccccc3c2=O)n1 (configuration not stated)	inconclusive: -22.7%	–
O=C(NCCN1CCOCC1)c1cc(-c2ccccc2)on1	inconclusive: 23%	–

SMILES	lipid storage change, negative = inhibition	Potency
O=C(O)CCC(NS(=O)(=O)c1ccc(-c2ccccc2)cc1)C(=O)O (configuration not stated)	inconclusive: -27.1%	–
O=C(O)CNc1nc(-c2ccccc2)c2cc([N+](=O)[O-])ccc2n1	inconclusive: -17.1%	–
Cc1cc(C)n(Cc2cnc(N3CCOCC3)s2)n1	inconclusive: 7.91%	–
CCOc1ccccc1N1CC(C(=O)N2CCc3ccccc3C2)CC1=O (configuration not stated)	inconclusive: 27.8%	–
COc1cc(C(=O)NC(=S)Nc2csc(-c3ccc(F)cc3)n2)cc(OC)c1OC	inconclusive: 16.2%	–
Cc1cccc(-c2nc(Nc3ccc(N4CCOCC4)cc3)c3ccccc3n2)c1	inconclusive: 14%	–
Cc1cc(C)n(-c2ncc(-c3ccccc3)nn2)n1	–	inconclusive: 0.82 µM [rising, full curve]
O=C(COC(=O)CCN1C(=O)C2CC=CCC2C1=O)NCCc1ccc(F)cc1 (configuration not stated)	–	inconclusive: 29.1 µM [activator, single point]
Cc1cccc(-n2c(N)cc(=O)[nH]c2=S)c1	–	inconclusive: 1.46 µM [falling, partial curve]
CCn1c(Sc2ccc([N+](=O)[O-])cn2)nnc1-c1ccco1	–	inconclusive: 7.31 µM [falling, single point]
COC(=O)[C@@]12CCCCN1[C@H](c1ccc(SC3CCCCC3)cc1)[C@@H]1C(=O)N(C)C(=O)[C@@H]12	–	inconclusive: 5.8 µM [falling, single point]
Cc1ccc(-c2n[nH]c(=O)c3ccccc23)cc1S(=O)(=O)NCCN1CCOCC1	inconclusive: 2.35%	–
O=C(CCNS(=O)(=O)c1ccc(Cl)cc1)N1CCOCC1	inconclusive: -0.688%	–
O=C1C(=O)N(CCN2CCOCC2)C(c2ccc(F)cc2)/C1=C(/O)c1ccc(S(=O)(=O)N2CCOCC2)cc1 (configuration not stated)	–	inconclusive: 29.1 µM [activator, single point]
Cc1nc(N2CCC(C)CC2)c2nnn(Cc3ccccc3)c2n1	inconclusive: 44.1%	–
CCn1cc(CN2CCc3c([nH]c4ccccc34)C2c2cccc(O)c2)c(C)n1 (configuration not stated)	inconclusive: -24.6%	–
COc1ccccc1NS(=O)(=O)c1ccc(/C=C/C(=O)O)cc1	inconclusive: -2.69%	–
CC1(C)CC(=O)C(N=Nc2cccc([N+](=O)[O-])c2)=C(O)C1	–	inconclusive: 4.11 µM [falling, partial curve, poor fit]
COc1ccc(C(=O)/C=C/c2ccc(F)cc2)c(OC(=O)c2ccc([N+](=O)[O-])cc2)c1	inconclusive: -32.6%	–
C/C(CCc1ccco1)=N/NC(=O)CCC(=O)Nc1cccc(Cl)c1	inactive	–
CCC(CC)C(=O)Nc1nnc(SCC(=O)NC2CC2)s1	inconclusive: 101%	–
CC(C)NS(=O)(=O)c1ccc(NC(=O)Cc2ccsc2)cc1	inconclusive: -32.2%	–
COC(=O)c1cc(S(=O)(=O)NCc2ccccc2)c[nH]1	inconclusive: -1.11%	–
c1ccc(Cn2c(-c3ccccc3)c[n+]3c2SCCC3)cc1	inconclusive: 47.4%	–
CC(=O)c1c(C)[nH]c(C(=O)Nc2cc(F)ccc2C)c1C	inconclusive: -24.5%	–
COc1ccc(CCn2c(=O)[nH]c3cc(C(=O)NCCc4ccccc4)ccc3c2=O)cc1OC	inconclusive: 8.02%	–

A run of entries from further up:
SMILES	lipid storage change, negative = inhibition	Potency
Cc1cccc(-n2c(N)cc(=O)[nH]c2=S)c1	–	inconclusive: 1.46 µM [falling, partial curve]
CCn1c(Sc2ccc([N+](=O)[O-])cn2)nnc1-c1ccco1	–	inconclusive: 7.31 µM [falling, single point]
COC(=O)[C@@]12CCCCN1[C@H](c1ccc(SC3CCCCC3)cc1)[C@@H]1C(=O)N(C)C(=O)[C@@H]12	–	inconclusive: 5.8 µM [falling, single point]
Cc1ccc(-c2n[nH]c(=O)c3ccccc23)cc1S(=O)(=O)NCCN1CCOCC1	inconclusive: 2.35%	–
O=C(CCNS(=O)(=O)c1ccc(Cl)cc1)N1CCOCC1	inconclusive: -0.688%	–

Additional entries follow:

SMILES	lipid storage change, negative = inhibition	Potency
COc1cccc(C(=O)Oc2ccc3c(C)cc(=O)oc3c2C(C)=O)c1	inconclusive: 12.2%	–
CCN(C(=O)Cn1cnc2c1c(=O)n(C)c(=O)n2C)C1CCS(=O)(=O)C1 (configuration not stated)	inconclusive: -30.2%	–
O=C1CCN(C(=O)Nc2ccccc2Cl)N1	inconclusive: -24.7%	–
Cc1cccc(CSCc2ccc(C(=O)NCC3CCCO3)o2)c1 (configuration not stated)	inconclusive: 3.17%	–
O=C(c1cc(COc2ccc(F)cc2F)on1)N1CCN(C2CCCC2)C(=O)C1	inconclusive: 16.8%	–
Cc1ccc(C(=O)O)cc1NC(=O)CSc1ncnc2sc3c(c12)CCC3	inconclusive: -2.58%	–
CCCS(=O)(=O)N1CCCC(C(=O)NCCc2ccccc2)C1 (configuration not stated)	inactive	–
CCOC(=O)N1CCN(C(=O)c2ccc3c(=O)n(-c4cc(OC)ccc4OC)c(=S)[nH]c3c2)CC1	inconclusive: 12.7%	–
O=C(CN(c1cccc(C(F)(F)F)c1)S(=O)(=O)c1ccc(Cl)c([N+](=O)[O-])c1)NCc1ccc(F)cc1	–	inconclusive: 29.1 µM [falling, single point]
Cc1ccc(S(=O)(=O)N2CCCCC2)cc1NC(=O)c1ccc2c(=O)n3c(nc2c1)CCCCC3	inconclusive: 25.2%	–
O=C(Nc1ccccc1N1CCCC1)C1=COCCO1	inconclusive: 3.11%	–
OCCCNc1ncnc2oc(-c3ccccc3)c(-c3ccccc3)c12	inactive	–
Cc1cc(C)c2c(=O)n(CC(=O)N3CCC(Cc4ccccc4)CC3)sc2n1	–	inconclusive: 11.6 µM [falling, partial curve]
Fc1cccc(NCc2ccoc2)c1	inconclusive: -2.02%	–
CCCCOC(=O)C1C2C=C[C@]3(CN(C(C)c4ccc(OC)cc4)C(=O)[C@H]13)O2 (some centres not stated)	–	inconclusive: 29.1 µM [cytotoxic, single point]
O=C(NCc1cccnc1)c1cccc(S(=O)(=O)N2CCOCC2)c1	inconclusive: 43.1%	–
O=C(Nc1ccc2oc(-c3ccccc3)nc2c1)C1CCCO1 (configuration not stated)	–	inconclusive: 1.84 µM [activator, partial curve]
O=C(Nc1ccncc1)c1cc(-c2cccc(Br)c2)nc2ccccc12	inconclusive: 26.4%	–
O=C(NCC1CC1)c1onc(CSc2ccncc2)c1C(=O)NCC1CC1	inconclusive: 10.3%	–
COC(=O)C1CCCN1S(=O)(=O)c1ccc([N+](=O)[O-])cc1 (configuration not stated)	inconclusive: -14.4%	–
NC(=NCc1ccco1)NC(=O)c1ccccc1	–	active: 20.6 µM
O=C(/C=C/c1cccc([N+](=O)[O-])c1)NCCc1ccc(F)cc1	inconclusive: 36.7%	–
O=C(NC1CC1)C1CCN(C(=O)c2ccc(Cl)cc2Cl)CC1	–	inconclusive: 4.61 µM [falling, single point]
O=C(NCC1CCCN(Cc2nccs2)C1)c1cccc2ccccc12 (configuration not stated)	inconclusive: 30.7%	–
CCOC(=O)c1oc2cc(O)ccc2c(=O)c1-c1ccccc1OC	inconclusive: -20.2%	–
